Values of other authors, collected in publication PMC5686171 (Scientific Reports, 2017).

Tested on: α1T206C in α1β2γ2
Conditions: ref [12],[27]; cited from earlier work

Compound: NCCCC(=O)O [GABA, γ-Aminobutyric acid]
- Increase in EC50 GABA: (5-fold increase in EC50 GABA)
